PubChem BioAssay AID1259280 – Sanger Institute | 2017
Screen: 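Kinase knock-downs that kill colorectal cancer cells or add to anchor drugs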 (primary screen). Cell system: human SNU407 colorectal cancer cells. Reagent: siRNA pool against human genes. Conditions: anchor drugs BYL719 at 1 µM, cetuximab at 5 µg/ml or trametinib at 10 nM, or DMSO vehicle alone; exposure time not given. Detection: 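Viability per well scaled to a non-targeting pool and averaged over replicates, with a robust z-score from controls and a synergy score per anchor drug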. Direction: viability z-score, no drug and viability vs control, no drug: higher = more cells survive the knock-down. Units: viability vs control, no drug in fraction of control. Active means: 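a knock-down counts as essential when its robust viability z-score without drug is below -3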. Calls: active = essential (knock-down alone kills cells); inactive = no change without drug.
The deposit covers 794 reagents; this is a random part of them. 12 of all reagents (1.5%) were called active. 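Calls cover knock-down without drug only; synergy scores stand apart, values above 0.15 being treated as synergy.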 Unmarked entries are inactive. No viability above 1 is reported: the scale is capped. Not all columns of the deposit are shown. Not given: the amount of reagent, the time to read-out.

ZAP70 — viability z-score, no drug: 0.292; viability vs control, no drug: 0.953
KHK — viability z-score, no drug: -0.00442; viability vs control, no drug: 0.931
GNE — viability z-score, no drug: 0.342; viability vs control, no drug: 0.957
PIK3R4 — viability z-score, no drug: 0.428; viability vs control, no drug: 0.964
BMAL1 — viability z-score, no drug: -1.12; viability vs control, no drug: 0.846
FN3KRP — viability z-score, no drug: -0.283; viability vs control, no drug: 0.91
SYNCRIP — viability z-score, no drug: -2.47; viability vs control, no drug: 0.742
ATM — viability z-score, no drug: 0.703; viability vs control, no drug: 0.985
MATK — viability z-score, no drug: -0.637; viability vs control, no drug: 0.882
STK3 — viability z-score, no drug: 0.901; viability vs control, no drug: 1
RIOK3 — viability z-score, no drug: -0.824; viability vs control, no drug: 0.868

A stretch taken from the entries so far:
KHK — viability z-score, no drug: -0.00442; viability vs control, no drug: 0.931
GNE — viability z-score, no drug: 0.342; viability vs control, no drug: 0.957

The results go on.
MAP3K6 — viability z-score, no drug: -0.213; viability vs control, no drug: 0.915
PRKAR1A — viability z-score, no drug: 0.901; viability vs control, no drug: 1
MAPKAPK3 — viability z-score, no drug: -0.997; viability vs control, no drug: 0.855
ALDH18A1 — viability z-score, no drug: 0.823; viability vs control, no drug: 0.994
CDC42BPA — viability z-score, no drug: -2.45; viability vs control, no drug: 0.744
AK5 — viability z-score, no drug: 0.296; viability vs control, no drug: 0.954
ITPK1 — viability z-score, no drug: 0.901; viability vs control, no drug: 1
PRKD1 — viability z-score, no drug: 0.901; viability vs control, no drug: 1
DSTYK — viability z-score, no drug: 0.623; viability vs control, no drug: 0.979
